# The supplement of paper PMC10849652
# Protein sequences, listed by entry. Tags and fused reporters are not part of them. Lines headed by an entry give the natural chain unless they say otherwise; changes in a name come on top.
# UniProt Q8TF64: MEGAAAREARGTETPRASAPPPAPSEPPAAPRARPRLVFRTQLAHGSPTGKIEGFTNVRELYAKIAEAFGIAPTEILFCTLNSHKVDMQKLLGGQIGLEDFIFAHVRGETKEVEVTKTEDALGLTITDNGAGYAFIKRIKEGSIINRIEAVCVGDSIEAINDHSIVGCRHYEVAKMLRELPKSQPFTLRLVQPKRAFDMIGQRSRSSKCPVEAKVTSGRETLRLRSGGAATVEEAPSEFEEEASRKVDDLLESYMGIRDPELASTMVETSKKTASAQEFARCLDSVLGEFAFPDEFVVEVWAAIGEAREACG
# UniProt O94923: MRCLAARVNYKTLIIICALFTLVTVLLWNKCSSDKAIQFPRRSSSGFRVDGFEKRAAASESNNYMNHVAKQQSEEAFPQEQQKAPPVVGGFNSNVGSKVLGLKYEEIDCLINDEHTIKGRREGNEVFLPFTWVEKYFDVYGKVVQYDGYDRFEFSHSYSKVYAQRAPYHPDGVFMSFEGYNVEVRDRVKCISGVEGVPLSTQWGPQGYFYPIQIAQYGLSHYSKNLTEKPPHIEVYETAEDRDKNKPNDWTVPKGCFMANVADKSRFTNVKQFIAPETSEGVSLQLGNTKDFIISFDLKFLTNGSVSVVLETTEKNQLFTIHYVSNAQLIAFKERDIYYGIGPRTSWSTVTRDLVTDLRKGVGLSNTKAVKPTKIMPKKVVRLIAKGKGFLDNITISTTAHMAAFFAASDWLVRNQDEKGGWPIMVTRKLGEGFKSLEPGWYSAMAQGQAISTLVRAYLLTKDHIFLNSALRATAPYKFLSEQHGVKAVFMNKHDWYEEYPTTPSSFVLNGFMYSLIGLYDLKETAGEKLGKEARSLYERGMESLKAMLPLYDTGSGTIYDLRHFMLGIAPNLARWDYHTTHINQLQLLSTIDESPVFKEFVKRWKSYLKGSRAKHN
# UniProt Q9NU53: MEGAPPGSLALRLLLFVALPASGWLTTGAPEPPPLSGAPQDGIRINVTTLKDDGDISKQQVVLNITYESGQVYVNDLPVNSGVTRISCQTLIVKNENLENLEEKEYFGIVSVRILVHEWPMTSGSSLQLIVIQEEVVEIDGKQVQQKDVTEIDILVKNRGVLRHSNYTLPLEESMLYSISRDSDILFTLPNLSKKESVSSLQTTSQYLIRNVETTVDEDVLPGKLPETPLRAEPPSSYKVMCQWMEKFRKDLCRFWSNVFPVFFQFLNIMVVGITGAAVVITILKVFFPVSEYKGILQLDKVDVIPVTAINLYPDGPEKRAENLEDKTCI
# UniProt P17174: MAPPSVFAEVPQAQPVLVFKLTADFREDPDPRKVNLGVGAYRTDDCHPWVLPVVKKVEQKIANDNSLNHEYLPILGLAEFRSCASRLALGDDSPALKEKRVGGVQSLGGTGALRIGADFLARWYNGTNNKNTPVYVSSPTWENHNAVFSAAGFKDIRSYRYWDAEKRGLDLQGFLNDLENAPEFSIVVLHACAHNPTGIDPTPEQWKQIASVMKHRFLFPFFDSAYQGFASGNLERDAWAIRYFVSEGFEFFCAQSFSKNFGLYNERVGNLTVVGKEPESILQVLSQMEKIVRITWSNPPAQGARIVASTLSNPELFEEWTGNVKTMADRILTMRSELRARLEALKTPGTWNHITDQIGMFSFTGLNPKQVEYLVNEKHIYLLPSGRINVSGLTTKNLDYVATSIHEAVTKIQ
# UniProt Q9BQQ3: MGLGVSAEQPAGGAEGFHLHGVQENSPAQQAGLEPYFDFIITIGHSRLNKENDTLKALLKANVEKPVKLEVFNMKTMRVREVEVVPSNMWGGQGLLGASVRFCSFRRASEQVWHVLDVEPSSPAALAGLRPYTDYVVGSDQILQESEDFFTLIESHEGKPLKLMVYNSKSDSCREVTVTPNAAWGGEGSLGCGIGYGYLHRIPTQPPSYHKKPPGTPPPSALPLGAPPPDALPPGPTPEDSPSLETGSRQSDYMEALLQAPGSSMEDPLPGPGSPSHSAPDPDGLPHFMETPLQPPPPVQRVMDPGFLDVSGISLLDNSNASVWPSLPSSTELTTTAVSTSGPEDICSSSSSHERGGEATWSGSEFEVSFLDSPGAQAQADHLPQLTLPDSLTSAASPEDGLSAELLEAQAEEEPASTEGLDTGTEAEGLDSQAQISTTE
# UniProt Q8TBA6: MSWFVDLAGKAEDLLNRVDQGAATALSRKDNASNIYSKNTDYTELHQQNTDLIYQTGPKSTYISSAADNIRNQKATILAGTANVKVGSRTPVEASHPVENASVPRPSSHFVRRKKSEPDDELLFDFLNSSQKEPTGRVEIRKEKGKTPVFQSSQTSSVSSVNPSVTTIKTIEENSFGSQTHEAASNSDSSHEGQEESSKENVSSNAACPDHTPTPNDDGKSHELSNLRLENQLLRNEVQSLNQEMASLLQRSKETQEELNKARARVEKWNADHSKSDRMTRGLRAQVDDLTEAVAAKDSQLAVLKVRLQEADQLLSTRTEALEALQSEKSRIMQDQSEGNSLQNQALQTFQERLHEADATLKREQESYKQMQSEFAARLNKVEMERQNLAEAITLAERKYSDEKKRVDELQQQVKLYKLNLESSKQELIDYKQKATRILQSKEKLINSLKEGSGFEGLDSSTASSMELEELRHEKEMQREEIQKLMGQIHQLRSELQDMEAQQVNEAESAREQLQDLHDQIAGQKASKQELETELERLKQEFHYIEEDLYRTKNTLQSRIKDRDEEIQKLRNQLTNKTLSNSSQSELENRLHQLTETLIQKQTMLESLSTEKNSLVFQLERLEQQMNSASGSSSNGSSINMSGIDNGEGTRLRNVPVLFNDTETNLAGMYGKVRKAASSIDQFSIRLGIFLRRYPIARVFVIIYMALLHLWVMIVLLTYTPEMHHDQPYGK
# UniProt P63218: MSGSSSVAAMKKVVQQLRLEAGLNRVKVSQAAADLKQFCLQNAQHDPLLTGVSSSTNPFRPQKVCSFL
# UniProt Q9H4A6: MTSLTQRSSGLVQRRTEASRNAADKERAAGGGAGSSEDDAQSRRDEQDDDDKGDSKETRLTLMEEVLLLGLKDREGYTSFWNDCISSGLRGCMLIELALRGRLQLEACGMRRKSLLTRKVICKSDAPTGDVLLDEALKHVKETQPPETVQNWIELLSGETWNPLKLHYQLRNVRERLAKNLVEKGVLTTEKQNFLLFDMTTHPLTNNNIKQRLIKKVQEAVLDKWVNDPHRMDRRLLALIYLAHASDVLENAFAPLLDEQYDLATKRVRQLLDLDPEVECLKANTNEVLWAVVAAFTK
# UniProt P04899, whole entry, looked up: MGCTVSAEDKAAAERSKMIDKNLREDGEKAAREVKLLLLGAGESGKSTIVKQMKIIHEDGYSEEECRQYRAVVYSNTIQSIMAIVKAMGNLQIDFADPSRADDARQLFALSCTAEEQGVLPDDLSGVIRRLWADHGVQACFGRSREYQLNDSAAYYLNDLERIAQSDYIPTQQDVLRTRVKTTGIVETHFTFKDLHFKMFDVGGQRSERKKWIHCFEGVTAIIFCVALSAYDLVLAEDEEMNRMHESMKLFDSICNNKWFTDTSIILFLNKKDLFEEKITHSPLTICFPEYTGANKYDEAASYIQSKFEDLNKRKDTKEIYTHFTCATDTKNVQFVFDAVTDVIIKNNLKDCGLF
# UniProt Q14956: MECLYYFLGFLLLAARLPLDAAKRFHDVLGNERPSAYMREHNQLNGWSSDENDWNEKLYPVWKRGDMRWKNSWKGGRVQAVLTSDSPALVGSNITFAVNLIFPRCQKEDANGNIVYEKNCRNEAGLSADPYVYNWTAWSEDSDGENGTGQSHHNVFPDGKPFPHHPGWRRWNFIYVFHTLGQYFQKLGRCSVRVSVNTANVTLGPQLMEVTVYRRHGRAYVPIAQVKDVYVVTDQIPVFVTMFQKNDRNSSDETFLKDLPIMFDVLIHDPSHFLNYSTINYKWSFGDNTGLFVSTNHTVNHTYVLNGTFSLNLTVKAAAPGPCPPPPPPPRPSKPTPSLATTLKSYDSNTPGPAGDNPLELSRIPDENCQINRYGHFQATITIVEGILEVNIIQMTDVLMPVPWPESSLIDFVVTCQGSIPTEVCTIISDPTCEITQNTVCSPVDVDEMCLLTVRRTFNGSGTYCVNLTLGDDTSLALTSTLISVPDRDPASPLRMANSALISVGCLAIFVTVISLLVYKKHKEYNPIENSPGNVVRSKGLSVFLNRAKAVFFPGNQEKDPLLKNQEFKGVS
# UniProt P62873, whole entry, looked up: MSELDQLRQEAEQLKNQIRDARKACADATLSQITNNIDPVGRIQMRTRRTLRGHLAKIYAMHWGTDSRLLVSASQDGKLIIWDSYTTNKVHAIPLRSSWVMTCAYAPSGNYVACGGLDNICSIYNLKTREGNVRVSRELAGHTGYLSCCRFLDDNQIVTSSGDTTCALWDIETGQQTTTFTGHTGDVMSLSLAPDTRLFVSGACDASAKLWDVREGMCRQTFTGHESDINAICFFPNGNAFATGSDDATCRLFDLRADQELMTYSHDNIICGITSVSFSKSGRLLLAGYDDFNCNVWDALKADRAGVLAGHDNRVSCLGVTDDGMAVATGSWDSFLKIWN
# UniProt P63096, whole entry, looked up: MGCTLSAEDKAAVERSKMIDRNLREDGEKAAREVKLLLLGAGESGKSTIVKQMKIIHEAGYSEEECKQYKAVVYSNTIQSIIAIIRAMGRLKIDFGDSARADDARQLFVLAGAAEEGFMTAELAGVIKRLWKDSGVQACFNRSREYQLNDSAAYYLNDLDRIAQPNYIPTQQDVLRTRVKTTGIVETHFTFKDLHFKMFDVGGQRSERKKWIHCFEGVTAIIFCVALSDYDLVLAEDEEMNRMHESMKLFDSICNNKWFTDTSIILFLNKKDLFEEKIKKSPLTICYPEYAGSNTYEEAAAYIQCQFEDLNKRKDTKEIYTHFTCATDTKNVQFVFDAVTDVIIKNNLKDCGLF
# UniProt Q96IJ6: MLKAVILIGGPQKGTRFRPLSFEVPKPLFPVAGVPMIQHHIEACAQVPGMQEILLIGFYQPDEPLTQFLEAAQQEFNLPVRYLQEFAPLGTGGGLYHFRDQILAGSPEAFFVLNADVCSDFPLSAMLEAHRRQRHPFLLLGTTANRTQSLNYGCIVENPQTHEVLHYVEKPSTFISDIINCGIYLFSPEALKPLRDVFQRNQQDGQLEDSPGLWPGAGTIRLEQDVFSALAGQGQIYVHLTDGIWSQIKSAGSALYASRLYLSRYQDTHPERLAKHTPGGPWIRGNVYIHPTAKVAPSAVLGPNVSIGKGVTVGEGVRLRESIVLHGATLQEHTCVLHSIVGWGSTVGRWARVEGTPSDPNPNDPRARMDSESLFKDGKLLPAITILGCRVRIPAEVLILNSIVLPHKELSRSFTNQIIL
# UniProt Q9HC38: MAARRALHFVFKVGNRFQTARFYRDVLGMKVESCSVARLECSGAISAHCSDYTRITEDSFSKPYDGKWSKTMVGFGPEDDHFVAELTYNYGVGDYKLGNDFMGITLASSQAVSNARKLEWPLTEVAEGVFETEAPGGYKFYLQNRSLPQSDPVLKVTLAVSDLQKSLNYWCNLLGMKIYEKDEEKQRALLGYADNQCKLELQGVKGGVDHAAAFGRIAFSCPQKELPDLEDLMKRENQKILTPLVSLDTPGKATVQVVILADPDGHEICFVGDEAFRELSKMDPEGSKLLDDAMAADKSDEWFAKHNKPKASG
# UniProt Q9NQ84: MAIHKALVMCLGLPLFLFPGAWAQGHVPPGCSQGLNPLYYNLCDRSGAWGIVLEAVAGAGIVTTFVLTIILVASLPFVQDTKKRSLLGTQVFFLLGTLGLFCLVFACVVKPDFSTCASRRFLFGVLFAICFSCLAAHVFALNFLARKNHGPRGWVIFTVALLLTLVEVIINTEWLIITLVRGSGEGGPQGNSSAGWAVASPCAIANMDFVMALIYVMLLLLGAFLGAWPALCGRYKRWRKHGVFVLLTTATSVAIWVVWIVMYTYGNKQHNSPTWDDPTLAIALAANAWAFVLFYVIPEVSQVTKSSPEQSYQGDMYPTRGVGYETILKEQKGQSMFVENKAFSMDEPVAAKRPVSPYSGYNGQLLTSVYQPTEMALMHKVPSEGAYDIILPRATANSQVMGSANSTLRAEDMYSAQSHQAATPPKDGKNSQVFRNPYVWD
# UniProt Q9UBI6: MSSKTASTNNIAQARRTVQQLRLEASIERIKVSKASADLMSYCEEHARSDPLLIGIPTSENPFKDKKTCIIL
# UniProt Q13227: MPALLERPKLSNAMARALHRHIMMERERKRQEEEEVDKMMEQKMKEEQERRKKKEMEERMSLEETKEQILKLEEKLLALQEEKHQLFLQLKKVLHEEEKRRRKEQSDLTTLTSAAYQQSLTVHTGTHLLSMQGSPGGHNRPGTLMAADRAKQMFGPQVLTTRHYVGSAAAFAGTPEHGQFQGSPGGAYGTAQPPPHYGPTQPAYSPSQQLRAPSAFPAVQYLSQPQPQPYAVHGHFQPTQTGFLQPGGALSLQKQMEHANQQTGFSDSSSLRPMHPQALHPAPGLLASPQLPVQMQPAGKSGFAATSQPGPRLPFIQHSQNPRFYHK
# UniProt Q9NS18: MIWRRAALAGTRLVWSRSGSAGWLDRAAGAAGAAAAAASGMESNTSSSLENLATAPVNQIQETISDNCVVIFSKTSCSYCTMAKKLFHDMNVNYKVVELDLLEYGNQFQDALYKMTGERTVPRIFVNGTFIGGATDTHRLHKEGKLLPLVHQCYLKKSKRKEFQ
# This is one part of the list.
# Compound: c1ccc([C@@H]2C[C@H]2NC2CCNCC2)cc1
# Assay: log2 fold change, soluble protein after heating vs DMSO (PISA); higher = thermal stabilisation; K562 lysate, 10 uM; active = over 0.2 and 3.5 SD of the protein, either way, in both replicates (recomputed)
# Outline: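 K562 pellets were dounce-homogenised in PBS pH 7.4 containing 1 mM MgCl2, and the crude extract, at 1 mg/mL protein, was exposed to 10 μM compound for 30 min. Aliquots were heated for 3 min across 48°C-58°C, pooled, brought to 0.5% NP-40 at 4°C and spun at 21,000xg for 90 min, with the supernatant taken as soluble protein. TMTpro 16plex LC-MS/MS with equalised channel sums quantified that protein. Values are log-two fold changes in thermal stability relative to solvent controls, taken from duplicates.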
row,Target,log2 fold change
1,GIPC3 (UniProt Q8TF64),inactive: -0.075
2,GLCE (UniProt O94923),inactive: 0.105
3,GINM1 (UniProt Q9NU53),inactive: -0.497
4,GIGYF2 (UniProt Q6Y7W6),inactive: 0.033
5,GOT1 (UniProt P17174),inactive: -0.011
6,GORASP1 (UniProt Q9BQQ3),inactive: 0.042
7,GOLGA5 (UniProt Q8TBA6),inactive: -0.038
8,GNG5 (UniProt P63218),inactive: 0.141
9,GOLPH3 (UniProt Q9H4A6),inactive: 0.008
10,GOSR1 (UniProt E9PCW1),inactive: 0.164
11,GNAI2 (UniProt P04899),inactive: 0.044
12,GOLGA3 (UniProt Q08378),inactive: 0
13,GPNMB (UniProt Q14956),inactive: -0.507
14,GNB1 (UniProt P62873),inactive: -0.329
15,GPA33 (UniProt Q99795),active: -0.514
16,GOLPH3L (UniProt Q9H4A5),inactive: 0.021
17,GNAI1 (UniProt P63096),inactive: -0.109
18,GMPPA (UniProt Q96IJ6),inactive: 0.028
19,GLOD4 isoform 2 (UniProt Q9HC38),inactive: 0.015
20,GPRC5C isoform 2 (UniProt Q9NQ84),inactive: 0.04
21,GNG12 (UniProt Q9UBI6),inactive: 0.001
22,GPS2 (UniProt Q13227),inactive: 0.021
23,GLRX2 (UniProt Q9NS18),inactive: 0.026
24,GPSM2 (UniProt P81274),inactive: -0.101

# Some of the entries above, set out differently.
row	Target	log2 fold change
9	GOLPH3 (UniProt Q9H4A6)	inactive: 0.008
10	GOSR1 (UniProt E9PCW1)	inactive: 0.164
11	GNAI2 (UniProt P04899)	inactive: 0.044
12	GOLGA3 (UniProt Q08378)	inactive: 0
13	GPNMB (UniProt Q14956)	inactive: -0.507
14	GNB1 (UniProt P62873)	inactive: -0.329
15	GPA33 (UniProt Q99795)	active: -0.514
